Laboratory results: the supplement of paper PMC12067093, “Discovery and optimisation of a covalent ligand for TRIM25 and its application to targeted protein ubiquitination” (Chemical Science, 2025)
The other results are listed elsewhere or left out.

Chains of the proteins cited; added tags and fusions are not shown. Lines headed by an entry give the natural chain unless they say otherwise; changes in a name come on top.
UniProt Q9Y2X7: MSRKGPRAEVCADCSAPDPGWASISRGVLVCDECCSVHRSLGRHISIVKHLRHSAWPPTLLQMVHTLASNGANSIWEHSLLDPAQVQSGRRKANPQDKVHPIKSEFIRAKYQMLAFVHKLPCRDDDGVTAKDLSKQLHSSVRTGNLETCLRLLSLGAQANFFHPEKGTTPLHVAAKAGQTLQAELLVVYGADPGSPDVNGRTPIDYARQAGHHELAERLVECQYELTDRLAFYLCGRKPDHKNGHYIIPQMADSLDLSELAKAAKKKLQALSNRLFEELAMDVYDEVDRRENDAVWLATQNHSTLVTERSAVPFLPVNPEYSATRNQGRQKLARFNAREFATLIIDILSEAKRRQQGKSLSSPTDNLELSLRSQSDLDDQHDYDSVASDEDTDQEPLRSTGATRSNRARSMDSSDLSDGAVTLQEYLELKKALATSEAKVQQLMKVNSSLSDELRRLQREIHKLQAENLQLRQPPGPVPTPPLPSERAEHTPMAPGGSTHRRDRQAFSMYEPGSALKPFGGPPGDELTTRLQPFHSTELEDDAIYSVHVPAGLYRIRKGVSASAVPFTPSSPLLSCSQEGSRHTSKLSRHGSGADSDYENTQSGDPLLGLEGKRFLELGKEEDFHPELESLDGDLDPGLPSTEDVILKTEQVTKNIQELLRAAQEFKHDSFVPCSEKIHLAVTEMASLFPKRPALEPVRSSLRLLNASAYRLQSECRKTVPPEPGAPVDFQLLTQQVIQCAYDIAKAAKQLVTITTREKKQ
UniProt Q8TF64: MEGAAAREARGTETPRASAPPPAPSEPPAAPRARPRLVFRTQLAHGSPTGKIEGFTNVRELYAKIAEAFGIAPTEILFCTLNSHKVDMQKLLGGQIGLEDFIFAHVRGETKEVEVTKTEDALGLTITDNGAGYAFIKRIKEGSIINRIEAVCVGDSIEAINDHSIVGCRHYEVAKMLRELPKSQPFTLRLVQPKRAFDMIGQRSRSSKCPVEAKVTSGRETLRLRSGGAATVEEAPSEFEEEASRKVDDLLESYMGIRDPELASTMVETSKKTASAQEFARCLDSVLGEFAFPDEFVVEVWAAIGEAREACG
UniProt Q92616, whole entry, looked up: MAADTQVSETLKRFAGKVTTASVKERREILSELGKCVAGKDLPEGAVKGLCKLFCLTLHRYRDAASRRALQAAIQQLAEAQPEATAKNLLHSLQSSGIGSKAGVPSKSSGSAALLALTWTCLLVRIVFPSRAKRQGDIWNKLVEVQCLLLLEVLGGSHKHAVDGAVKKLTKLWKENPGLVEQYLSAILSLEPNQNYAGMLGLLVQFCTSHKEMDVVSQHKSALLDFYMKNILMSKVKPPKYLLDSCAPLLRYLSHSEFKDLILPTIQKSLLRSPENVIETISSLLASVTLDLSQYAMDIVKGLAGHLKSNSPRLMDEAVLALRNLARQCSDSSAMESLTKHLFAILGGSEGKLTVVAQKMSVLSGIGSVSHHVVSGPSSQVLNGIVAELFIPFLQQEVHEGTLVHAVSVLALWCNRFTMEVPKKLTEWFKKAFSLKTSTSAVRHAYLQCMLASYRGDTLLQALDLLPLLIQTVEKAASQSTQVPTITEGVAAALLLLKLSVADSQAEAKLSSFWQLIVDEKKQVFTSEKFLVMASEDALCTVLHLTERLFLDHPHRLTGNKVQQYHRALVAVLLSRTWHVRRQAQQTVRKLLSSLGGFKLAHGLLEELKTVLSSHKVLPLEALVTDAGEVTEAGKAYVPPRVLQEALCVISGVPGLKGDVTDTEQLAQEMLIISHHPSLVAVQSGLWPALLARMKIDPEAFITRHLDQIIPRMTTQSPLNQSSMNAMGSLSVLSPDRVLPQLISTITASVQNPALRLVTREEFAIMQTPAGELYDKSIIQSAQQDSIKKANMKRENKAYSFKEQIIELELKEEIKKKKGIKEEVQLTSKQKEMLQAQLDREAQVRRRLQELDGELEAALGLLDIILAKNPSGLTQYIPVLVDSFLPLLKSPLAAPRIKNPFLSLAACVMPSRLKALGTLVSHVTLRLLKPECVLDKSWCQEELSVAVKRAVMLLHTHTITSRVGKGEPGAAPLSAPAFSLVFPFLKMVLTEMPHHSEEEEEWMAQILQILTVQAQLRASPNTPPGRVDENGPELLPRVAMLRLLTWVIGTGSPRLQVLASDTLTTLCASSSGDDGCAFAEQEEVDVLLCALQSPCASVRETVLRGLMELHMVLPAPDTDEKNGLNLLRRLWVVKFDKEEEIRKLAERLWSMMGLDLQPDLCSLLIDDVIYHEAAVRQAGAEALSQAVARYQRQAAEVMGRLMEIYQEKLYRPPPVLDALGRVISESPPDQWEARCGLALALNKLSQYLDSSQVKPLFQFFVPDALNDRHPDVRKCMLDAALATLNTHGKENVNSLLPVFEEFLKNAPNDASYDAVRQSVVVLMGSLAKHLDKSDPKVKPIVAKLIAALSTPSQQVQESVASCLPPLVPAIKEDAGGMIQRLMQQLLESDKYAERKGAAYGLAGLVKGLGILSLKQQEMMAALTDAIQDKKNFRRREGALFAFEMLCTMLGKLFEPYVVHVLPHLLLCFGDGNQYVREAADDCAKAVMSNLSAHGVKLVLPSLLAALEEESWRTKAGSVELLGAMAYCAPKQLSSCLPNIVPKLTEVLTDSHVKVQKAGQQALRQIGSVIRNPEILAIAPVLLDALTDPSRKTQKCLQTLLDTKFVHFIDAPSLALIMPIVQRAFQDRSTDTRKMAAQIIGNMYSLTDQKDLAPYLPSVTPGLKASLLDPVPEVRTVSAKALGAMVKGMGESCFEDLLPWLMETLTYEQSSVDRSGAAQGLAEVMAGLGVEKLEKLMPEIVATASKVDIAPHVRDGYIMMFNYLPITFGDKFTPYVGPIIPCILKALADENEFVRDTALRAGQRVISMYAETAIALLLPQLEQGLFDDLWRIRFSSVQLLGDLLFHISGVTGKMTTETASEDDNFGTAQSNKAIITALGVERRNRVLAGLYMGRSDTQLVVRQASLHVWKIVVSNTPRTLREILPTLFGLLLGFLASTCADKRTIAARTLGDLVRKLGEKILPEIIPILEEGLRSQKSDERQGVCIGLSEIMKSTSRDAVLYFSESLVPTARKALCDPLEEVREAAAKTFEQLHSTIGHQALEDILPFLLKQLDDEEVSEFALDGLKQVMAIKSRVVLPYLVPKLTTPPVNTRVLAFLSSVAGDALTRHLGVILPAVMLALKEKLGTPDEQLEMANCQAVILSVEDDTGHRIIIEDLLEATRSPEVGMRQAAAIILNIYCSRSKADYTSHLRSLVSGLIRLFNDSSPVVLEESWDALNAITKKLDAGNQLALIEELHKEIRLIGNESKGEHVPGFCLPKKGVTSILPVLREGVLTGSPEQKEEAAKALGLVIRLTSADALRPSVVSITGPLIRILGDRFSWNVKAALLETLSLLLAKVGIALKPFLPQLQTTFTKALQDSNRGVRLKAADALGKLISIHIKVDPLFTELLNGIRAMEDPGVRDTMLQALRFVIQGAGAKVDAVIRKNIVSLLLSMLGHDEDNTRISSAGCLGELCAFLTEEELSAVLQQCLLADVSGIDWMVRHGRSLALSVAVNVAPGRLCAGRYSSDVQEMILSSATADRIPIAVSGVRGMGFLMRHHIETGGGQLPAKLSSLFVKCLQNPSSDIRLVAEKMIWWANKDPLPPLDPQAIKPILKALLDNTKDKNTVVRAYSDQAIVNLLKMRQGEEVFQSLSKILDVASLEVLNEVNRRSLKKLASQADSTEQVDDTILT
UniProt Q06210: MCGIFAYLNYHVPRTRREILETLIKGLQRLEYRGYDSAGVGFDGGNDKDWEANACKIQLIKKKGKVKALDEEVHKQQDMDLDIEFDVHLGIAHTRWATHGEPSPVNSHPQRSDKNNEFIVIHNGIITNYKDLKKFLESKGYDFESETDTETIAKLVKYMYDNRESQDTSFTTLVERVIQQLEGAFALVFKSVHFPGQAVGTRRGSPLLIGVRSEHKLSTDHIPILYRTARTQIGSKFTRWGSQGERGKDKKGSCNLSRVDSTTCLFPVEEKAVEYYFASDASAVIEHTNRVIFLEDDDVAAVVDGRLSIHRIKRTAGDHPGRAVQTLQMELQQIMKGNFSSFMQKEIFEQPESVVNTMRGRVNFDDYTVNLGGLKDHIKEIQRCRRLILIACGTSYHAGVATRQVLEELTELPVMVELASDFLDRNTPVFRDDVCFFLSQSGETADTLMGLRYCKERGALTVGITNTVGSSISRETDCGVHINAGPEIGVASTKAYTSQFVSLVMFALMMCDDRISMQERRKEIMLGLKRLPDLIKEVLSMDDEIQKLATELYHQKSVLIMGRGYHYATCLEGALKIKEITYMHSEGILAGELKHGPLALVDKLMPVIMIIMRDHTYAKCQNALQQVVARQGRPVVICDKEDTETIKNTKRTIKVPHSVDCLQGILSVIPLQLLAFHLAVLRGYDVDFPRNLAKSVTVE
UniProt P41250: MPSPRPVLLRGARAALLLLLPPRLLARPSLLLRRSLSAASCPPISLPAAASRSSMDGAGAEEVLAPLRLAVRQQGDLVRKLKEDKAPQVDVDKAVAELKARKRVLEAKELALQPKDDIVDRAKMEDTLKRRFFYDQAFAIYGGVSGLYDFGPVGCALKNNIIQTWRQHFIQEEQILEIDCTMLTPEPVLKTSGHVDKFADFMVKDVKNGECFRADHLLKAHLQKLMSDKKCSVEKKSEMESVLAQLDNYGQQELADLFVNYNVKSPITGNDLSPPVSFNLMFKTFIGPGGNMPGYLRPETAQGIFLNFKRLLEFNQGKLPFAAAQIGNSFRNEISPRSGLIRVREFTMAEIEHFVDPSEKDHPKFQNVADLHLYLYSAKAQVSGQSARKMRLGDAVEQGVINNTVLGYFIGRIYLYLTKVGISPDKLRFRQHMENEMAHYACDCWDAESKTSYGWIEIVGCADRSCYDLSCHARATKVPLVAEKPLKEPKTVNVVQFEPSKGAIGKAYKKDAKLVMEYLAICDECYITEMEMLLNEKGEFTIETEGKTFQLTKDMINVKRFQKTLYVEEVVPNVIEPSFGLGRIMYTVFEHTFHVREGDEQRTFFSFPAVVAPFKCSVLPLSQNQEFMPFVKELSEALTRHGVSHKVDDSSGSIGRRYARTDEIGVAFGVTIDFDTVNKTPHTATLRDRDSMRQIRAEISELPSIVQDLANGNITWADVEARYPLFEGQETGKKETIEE
UniProt Q10471: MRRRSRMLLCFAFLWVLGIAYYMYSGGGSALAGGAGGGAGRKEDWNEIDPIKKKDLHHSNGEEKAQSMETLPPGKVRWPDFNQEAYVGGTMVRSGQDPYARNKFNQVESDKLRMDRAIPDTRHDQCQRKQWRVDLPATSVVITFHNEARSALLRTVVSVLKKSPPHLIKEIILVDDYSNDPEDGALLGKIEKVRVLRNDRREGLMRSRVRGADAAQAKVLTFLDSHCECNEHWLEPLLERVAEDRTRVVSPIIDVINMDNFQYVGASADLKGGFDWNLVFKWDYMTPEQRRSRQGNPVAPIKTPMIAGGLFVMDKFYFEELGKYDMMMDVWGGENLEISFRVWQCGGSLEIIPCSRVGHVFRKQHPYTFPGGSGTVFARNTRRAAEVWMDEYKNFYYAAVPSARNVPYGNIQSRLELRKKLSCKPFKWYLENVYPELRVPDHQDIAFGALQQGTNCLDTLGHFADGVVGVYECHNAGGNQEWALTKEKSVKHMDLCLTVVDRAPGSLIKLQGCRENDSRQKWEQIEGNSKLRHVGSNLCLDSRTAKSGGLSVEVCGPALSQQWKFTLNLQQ
UniProt Q96RP9: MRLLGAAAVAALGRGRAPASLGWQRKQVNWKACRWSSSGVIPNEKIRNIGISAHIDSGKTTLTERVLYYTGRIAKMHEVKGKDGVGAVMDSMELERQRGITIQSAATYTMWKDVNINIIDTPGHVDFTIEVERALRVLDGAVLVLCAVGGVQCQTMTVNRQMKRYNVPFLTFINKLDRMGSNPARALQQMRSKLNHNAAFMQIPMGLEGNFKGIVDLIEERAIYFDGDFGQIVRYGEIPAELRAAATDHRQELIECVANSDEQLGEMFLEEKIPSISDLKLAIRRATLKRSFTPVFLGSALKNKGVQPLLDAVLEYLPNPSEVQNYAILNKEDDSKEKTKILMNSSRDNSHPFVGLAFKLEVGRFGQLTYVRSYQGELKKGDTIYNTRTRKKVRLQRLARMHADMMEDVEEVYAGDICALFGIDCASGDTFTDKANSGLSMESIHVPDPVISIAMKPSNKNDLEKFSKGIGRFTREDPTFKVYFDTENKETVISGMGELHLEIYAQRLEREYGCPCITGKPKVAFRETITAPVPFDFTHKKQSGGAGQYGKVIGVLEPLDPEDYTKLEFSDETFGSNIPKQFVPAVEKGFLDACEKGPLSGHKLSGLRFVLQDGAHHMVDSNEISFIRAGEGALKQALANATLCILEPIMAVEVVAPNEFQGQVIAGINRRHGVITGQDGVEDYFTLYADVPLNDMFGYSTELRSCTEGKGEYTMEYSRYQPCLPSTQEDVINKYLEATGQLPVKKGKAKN

Compound: CC1Cc2ccccc2N1C(=O)C1CCCN(C1)C(=O)CCl (mixture of isomers) [TRIM25 ligand 11 (diastereomer mixture)]
Assay: probe-labelled cysteine peptide fold change vs DMSO (competition) (log2 fold change); higher = less target engagement (more negative = stronger competition)
Settings: THP-1, incubation time: 4 h
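Further: competitive chemoproteomic profiling in live THP-1 cells with an iodoacetamide desthiobiotin (IA-DTB) probe, comparing probe-labelled peptide intensities in compound-treated cells against DMSO-treated controls.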

Target | probe-labelled cysteine peptide fold change (10 µM) | probe-labelled cysteine peptide fold change (50 µM)
GIT1_Q9Y2X7_31_GVLVCDECCSVHR (UniProt Q9Y2X7) | 0.162 | 0.0222
GDPD1_Q8N9F7_75_IGTDMLELDCHITK (UniProt Q8N9F7) | -0.221 | -0.4
GDI1_P31150_202_TDDYLDQPCLETVNR (UniProt P31150) | -0.0491 | 0.103
GBF1_Q92538_1707_IDCFLPHLRDELFK (UniProt Q92538) | -0.0184 | -0.0975
GCAT_O75600_219_LVATDGAFSMDGDIAPLQEICCLASR (UniProt O75600) | 0.26 | 0.0439
GALK2_Q01415_349_KICEEAPENMVQLLGELMNQSHMSCR (UniProt Q01415) | 0.0715 | -0.26
GDE1_Q9NZC3_127_LCDLTFEQIR (UniProt Q9NZC3) | -0.0132 | -0.171
GALNT1_Q10472_482_TDDLCLDVSK (UniProt Q10472) | 0.0604 | 0.00641
GCLM_P48507_72_EFPDVLECTVSHAVEK (UniProt P48507) | 0.0379 | 0.0286
GAR1_Q9NY12_88_CTTDENKVPYFNAPVYLENK (UniProt Q9NY12) | -0.443 | -0.515
GIMAP2_Q9UG22_98_CYLLSAPGPHVLLLVTQLGR (UniProt Q9UG22) | -0.107 | 0.289
GALNT1_Q10472_459_VGIFNCHGMGGNQVFSYTANK (UniProt Q10472) | -0.125 | -0.0381
GIPC3_Q8TF64_152_IEAVCVGDSIEAINDHSIVGCR (UniProt Q8TF64) | 0.00901 | -0.0425
GART_P22102_298_FGDPECQVILPLLK (UniProt P22102) | 0.0971 | 0.165
GAPVD1_Q14C86_71_LIITSAEASPAECCQHAK (UniProt Q14C86) | 0.107 | 0.12
GALNT1_Q10472_523_LTLQHVNSNQCLDK (UniProt Q10472) | 0.00667 | -0.0307
GBA2_Q9HCG7_511_NMCHLRPTLR (UniProt Q9HCG7) | -0.0815 | 0.146
GCC2_Q8IWJ2_92_AETEQQCLSLK (UniProt Q8IWJ2) | 0.0658 | 0.339
GCDH_Q92947_308_YGIAWGVLGASEFCLHTAR (UniProt Q92947) | -0.0176 | 0.183
GATD1_Q8NB37_122+132_ILQHFHSESKPICAVGHGVAALCCATNEDR (UniProt Q8NB37) | 0.0703 | 0.0626
GALT_P07902_180_GAMMGCSNPHPHCQVWASSFLPDIAQR (UniProt P07902) | 0.0147 | -0.44
GCN1_Q92616_2136_LGTPDEQLEMANCQAVILSVEDDTGHR (UniProt Q92616) | 0.097 | -0.0335
GGNBP2_Q9H3C7_89+92_EVLSALSQLVPCVGCR (UniProt Q9H3C7) | 0.444 | 0.483
GBA_P04062_165_VPMASCDFSIR (UniProt P04062) | 0.00577 | 0.0973

Target | probe-labelled cysteine peptide fold change (10 µM) | probe-labelled cysteine peptide fold change (50 µM)
GIMAP2_Q9UG22_201_ELMDCIEDLLMEK (UniProt Q9UG22) | 0.0633 | 0.296
GFPT1_Q06210_392_LILIACGTSYHAGVATR (UniProt Q06210) | -0.103 | 0.193
GALNT1_Q10472_482_EIRTDDLCLDVSK (UniProt Q10472) | -0.206 | -0.0133
GFPT1_Q06210_435_DDVCFFLSQSGETADTLMGLR (UniProt Q06210) | 0.373 | 0.503
GARS_P41250_466+471_SCYDLSCHAR (UniProt P41250) | 0.0931 | -0.0052
GFPT1_Q06210_570_GYHYATCLEGALK (UniProt Q06210) | 0.0796 | 0.0569
GIMAP8_Q8ND71_214_FQDCVNEAASQEGDKPQGPR (UniProt Q8ND71) | -0.0867 | -0.321
GANAB_Q14697_423_DEADVLEVDQGFDDHNLPCDVIWLDIEHADGK (UniProt Q14697) | 0.163 | 0.058
GHDC_Q8N2G8_377_VVGAYNQCPVVR (UniProt Q8N2G8) | -0.0419 | -0.0199
GDI1_P31150_282_QLICDPSYIPDR (UniProt P31150) | 0.0147 | -0.064
GALNT2_Q10471_539_HVGSNLCLDSR (UniProt Q10471) | 0.0761 | 0.115
GALNT2_Q10471_229_VLTFLDSHCECNEHWLEPLLER (UniProt Q10471) | 0.0588 | 0.0629
GGPS1_O95749_247_YCVHYLEDVGSFEYTR (UniProt O95749) | 0.0621 | 0.00613
GAPDH_P04406_247_VPTANVSVVDLTCRLEK (UniProt P04406) | -0.778 | -0.389
GDAP2_Q9NXN4_348_ALYQTGVDNCGR (UniProt Q9NXN4) | -0.0283 | -0.121
GEMIN7_Q9H840_44_RAPLRPEVPEIQECPIAQESLESQEQR (UniProt Q9H840) | -0.154 | -0.558
GIMAP1_Q8WWP7_181_ELVAECGGR (UniProt Q8WWP7) | -0.114 | 0.0386
GFM1_Q96RP9_594_GFLDACEK (UniProt Q96RP9) | -0.0153 | -0.00558
GARS_P41250_442_QHMENEMAHYACDCWDAESK (UniProt P41250) | 0.123 | 0.111
GIPC3_Q8TF64_79_IAEAFGIAPTEILFCTLNSHK (UniProt Q8TF64) | 0.0131 | -0.0214
GEMIN5_Q8TEQ6_341_IVFNLCPLQTEDDK (UniProt Q8TEQ6) | 0.146 | 0.144
GEMIN4_P57678_486_QVIHLILECYADLSLPGK (UniProt P57678) | -0.107 | 0.0143
GATAD1_Q8WUU5_223_KMEYLEFVCHAPSEYFK (UniProt Q8WUU5) | -0.245 | 0.0273
GALK1_P51570_243_QCEEVAR (UniProt P51570) | 0.0249 | 0.153

Target | probe-labelled cysteine peptide fold change (10 µM) | probe-labelled cysteine peptide fold change (50 µM)
GCN1_Q92616_2015_ALCDPLEEVR (UniProt Q92616) | 0.0761 | 0.0471
GATB_O75879_228_AGVGLLEVVLEPDMSCGEEAATAVR (UniProt O75879) | -0.141 | -0.0354
GALK2_Q01415_407_LTGAGWGGCTVSMVPADKLPSFLANVHK (UniProt Q01415) | -0.454 | -0.235
GCFC2_P16383_595_VILEEHSTCENEVSK (UniProt P16383) | 0.0251 | -0.211
GALT_P07902_130_VMCFHPWSDVTLPLMSVPEIR (UniProt P07902) | 0.132 | -0.0683
GAPVD1_Q14C86_70+71_LIITSAEASPAECCQHAK (UniProt Q14C86) | 0.106 | -0.203
GIT1_Q9Y2X7_35_GVLVCDECCSVHR (UniProt Q9Y2X7) | 0.131 | -0.046
GAR1_Q9NY12_88_CTTDENK (UniProt Q9NY12) | -0.252 | -0.245
GARS_P41250_442+444_QHMENEMAHYACDCWDAESK (UniProt P41250) | 0.111 | 0.00341
GALNT1_Q10472_212+214_GQVITFLDAHCECTVGWLEPLLAR (UniProt Q10472) | 0.115 | 0.0411
GIGYF1_O75420_177_CGFEEGGAGPR (UniProt O75420) | 0.0176 | -0.22
GART_P22102_93_SAGVQCFGPTAEAAQLESSKR (UniProt P22102) | -0.13 | -0.00804
GEMIN5_Q8TEQ6_1051_CYLGATCAYDAAK (UniProt Q8TEQ6) | -0.0553 | 0.281
GCC2_Q8IWJ2_1061_NSTLQCETINSDNEDLLAR (UniProt Q8IWJ2) | 0.026 | -0.141
GFM1_Q96RP9_706_SCTEGKGEYTMEYSR (UniProt Q96RP9) | -0.199 | -0.212
GANAB_Q14697_423_WNYRDEADVLEVDQGFDDHNLPCDVIWLDIEHADGK (UniProt Q14697) | 0.141 | 0.0641
GCN1_Q92616_648_VLQEALCVISGVPGLK (UniProt Q92616) | -0.107 | -0.0634
GAN_Q9H2C0_415_KIGCYAAMK (UniProt Q9H2C0) | -0.132 | -0.109
GATAD2B_Q8WXI9_420+423_VEPFVCAQCR (UniProt Q8WXI9) | -0.0929 | -0.0885
GFPT1_Q06210_55_DWEANACK (UniProt Q06210) | -0.0786 | -0.0864
GGA2_Q9UJY4_343_VFQNPAGCMK (UniProt Q9UJY4) | -0.0198 | -0.301
GEMIN5_Q8TEQ6_572_LICTIQQHHK (UniProt Q8TEQ6) | 0.154 | 0.0754
GEN1_Q17RS7_634_SEVESELSAIPDGFENIPEQLSCESER (UniProt Q17RS7) | -0.0996 | 0.0681
GALNT12_Q8IXK2_125_WNPLCK (UniProt Q8IXK2) | -0.0726 | -0.0389
